Data published in paper PMC11335240.
Results are given in words; binding and its absence hold for the method and conditions named. Binding seen in cells or lysates may run through a third protein. A yes stands for co-enrichment or nearness to the bait. Other partners may have been found.

Target: T1, ZMYND12 (Zinc Finger, MYND domain containing 12) (mouse (endogenous in testis)) (UniProt A2BGJ5)
T1 sequence: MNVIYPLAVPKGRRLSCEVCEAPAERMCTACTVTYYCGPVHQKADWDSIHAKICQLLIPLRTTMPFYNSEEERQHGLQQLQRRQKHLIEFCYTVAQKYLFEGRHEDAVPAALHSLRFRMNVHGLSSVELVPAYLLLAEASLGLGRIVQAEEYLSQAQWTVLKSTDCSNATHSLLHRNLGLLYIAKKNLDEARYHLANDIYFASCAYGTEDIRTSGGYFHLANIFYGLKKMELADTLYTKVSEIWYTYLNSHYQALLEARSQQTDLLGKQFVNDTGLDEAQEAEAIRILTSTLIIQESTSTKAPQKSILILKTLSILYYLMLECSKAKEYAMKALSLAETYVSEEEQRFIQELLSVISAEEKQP
Experiment: affinity purification with mass spectrometry; immunoprecipitation with anti-ZMYND12 (anti-IgG as control) from wild-type mouse testis extract; SDS-PAGE, silver staining, bands cut out, LC-MS/MS; n = 3

binding: binds
B1: TTC29 (protein, UniProt Q80VM3 1-471)
chain: MATFPPLPMTHTRLAILARQKLPCSSKKIPRAQLIKEKEDIDYYLEQNFKGLSKEEVAAHRNSYKKSICVDMLRDGFHKSFTELFALMEQWDKLPEAAKAQSLFWQQRPLEDQPDKLDNFYHYLTRAEAAERKGYYEEVYNNLYALACYFDNSEDKWVRNHFYERCFNIAQLIKADGGKKEAEAESHMGLLFEEEGELLKAAEHYEAFHELTHGRLWKDGTGQLLNLVACESLVRTYRLLSDRMLENKDYKQAIKILIKASEIAREGNDRSMEGEASYYLGLAHLASGEYETALTVLNRYSEISTSLDDDHGLGRAYEAIAKALQSQGETTEAINYLEKFVTIARNNLQSLDMIRACTMLGDIYNEKGQYSKASEYFQQAFSTAMELMKTALMDETKVHYGIARAHQMMLAMKGYIESADSNGLNCLLSWKETRTQIEYDPILGESRRATEDNIYQLPDAEEETRRSPENQ
